The test addresses full-length, N-terminally FLAG-tagged human SHIP164 (3xFLAG-SHIP164) (human) (UniProt A0JNW5). Put plainly: affinity purification with mass spectrometry; purified 3xFLAG-SHIP164 immobilized on anti-FLAG resin, incubated with Triton X-100 solubilized mouse brain lysate for 16 h at 4°C; washes in 25 mM Hepes pH 7.4, 150 mM NaCl; FLAG-tagged control protein in parallel; shotgun LC-MS/MS; only the target purified.

Protein sequences, listed by entry. Tags and fused reporters are not part of them.
UniProt A0JNW5: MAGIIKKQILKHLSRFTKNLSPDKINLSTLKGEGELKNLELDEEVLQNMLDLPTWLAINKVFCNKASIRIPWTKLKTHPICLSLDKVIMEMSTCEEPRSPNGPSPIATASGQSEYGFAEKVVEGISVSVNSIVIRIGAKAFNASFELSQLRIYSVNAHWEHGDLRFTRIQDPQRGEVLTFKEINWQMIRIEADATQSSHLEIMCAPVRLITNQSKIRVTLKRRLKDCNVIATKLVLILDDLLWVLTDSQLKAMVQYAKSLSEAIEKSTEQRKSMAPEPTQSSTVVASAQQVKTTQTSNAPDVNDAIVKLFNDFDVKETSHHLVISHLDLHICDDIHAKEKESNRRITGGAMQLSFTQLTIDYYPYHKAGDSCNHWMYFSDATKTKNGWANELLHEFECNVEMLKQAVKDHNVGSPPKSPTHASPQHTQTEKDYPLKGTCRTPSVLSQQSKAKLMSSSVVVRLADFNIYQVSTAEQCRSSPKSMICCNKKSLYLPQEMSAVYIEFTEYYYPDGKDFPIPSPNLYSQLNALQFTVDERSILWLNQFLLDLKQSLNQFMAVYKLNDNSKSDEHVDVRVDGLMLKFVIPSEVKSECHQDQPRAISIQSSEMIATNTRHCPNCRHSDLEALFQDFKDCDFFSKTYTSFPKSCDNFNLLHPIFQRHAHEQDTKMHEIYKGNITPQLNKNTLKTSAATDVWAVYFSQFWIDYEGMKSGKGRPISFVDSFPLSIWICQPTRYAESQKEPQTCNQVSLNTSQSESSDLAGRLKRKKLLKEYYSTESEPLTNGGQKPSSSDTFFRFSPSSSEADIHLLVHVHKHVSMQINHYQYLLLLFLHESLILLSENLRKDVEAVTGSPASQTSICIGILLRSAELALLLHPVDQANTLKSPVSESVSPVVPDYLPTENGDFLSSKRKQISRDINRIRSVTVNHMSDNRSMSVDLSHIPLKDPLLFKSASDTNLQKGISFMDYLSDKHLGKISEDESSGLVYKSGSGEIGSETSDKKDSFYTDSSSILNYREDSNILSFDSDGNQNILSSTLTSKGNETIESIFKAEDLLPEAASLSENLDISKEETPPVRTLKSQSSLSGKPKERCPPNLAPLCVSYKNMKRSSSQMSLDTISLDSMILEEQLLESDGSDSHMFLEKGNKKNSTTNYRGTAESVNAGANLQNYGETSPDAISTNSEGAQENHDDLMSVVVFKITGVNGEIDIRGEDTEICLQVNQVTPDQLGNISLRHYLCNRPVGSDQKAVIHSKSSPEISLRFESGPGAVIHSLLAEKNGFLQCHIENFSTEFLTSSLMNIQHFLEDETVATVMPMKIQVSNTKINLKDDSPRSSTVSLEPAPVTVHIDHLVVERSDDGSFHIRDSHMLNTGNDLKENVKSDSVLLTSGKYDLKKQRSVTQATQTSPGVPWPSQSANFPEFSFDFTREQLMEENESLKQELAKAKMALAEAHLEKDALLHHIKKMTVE
UniProt P63168: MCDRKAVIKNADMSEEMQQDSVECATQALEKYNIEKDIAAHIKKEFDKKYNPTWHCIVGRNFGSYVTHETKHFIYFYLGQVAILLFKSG

No constants are given. Whether binding was seen depends on the method and setting. In cells and extracts the contact can be indirect. Here binding means that the protein was enriched with, or labelled near, the bait; the list need not be complete.

Regarding “light chain 1 of cytoplasmic dynein (DYNLL1) (from UniProt P63168 1-89)”, the binding result is reported as “binds”.

The record behind these values is paper PMC9067936, “SHIP164 is a chorein motif lipid transfer protein that controls endosome–Golgi membrane traffic” (The Journal of Cell Biology, 2022).
